Data on one compound can be found in paper PMC6286964, “Morphine Binds Creatine Kinase B and Inhibits Its Activity” (Frontiers in Cellular Neuroscience, 2018).

Amino acid sequences for entries named in this document (tags omitted). A change or cut given only in a name is not applied to a line headed by its entry.
UniProt Q04447: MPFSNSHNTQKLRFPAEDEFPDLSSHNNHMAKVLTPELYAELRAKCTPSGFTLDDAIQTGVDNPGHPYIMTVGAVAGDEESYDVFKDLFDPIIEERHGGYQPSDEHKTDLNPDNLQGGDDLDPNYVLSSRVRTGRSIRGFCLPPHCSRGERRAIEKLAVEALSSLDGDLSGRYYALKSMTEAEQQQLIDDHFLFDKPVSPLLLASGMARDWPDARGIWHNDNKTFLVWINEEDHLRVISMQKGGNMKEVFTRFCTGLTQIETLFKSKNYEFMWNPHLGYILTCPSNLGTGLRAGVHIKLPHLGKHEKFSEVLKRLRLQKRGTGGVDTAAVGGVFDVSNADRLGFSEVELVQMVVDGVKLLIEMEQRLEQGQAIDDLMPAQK

This experiment concerns the target T1, creatine kinase B (CK-B) (Mus musculus, UniProt Q04447).
T1 construct: gene Ckb
In words: biochemical.

Turning to `CN1CC[C@]23c4c5ccc(O)c4O[C@H]2[C@@H](O)C=C[C@H]3[C@H]1C5` [morphine], the affinity, expressed as Kd, was 10.8 µM.
